doi:10.1101/2021.05.19.444898
No constants are given. Whether binding was seen depends on the method and setting. In cells and extracts the contact can be indirect. Here binding means that the protein was enriched with, or labelled near, the bait; the list need not be complete.

Protein sequences, listed by entry. Tags and fused reporters are not part of them. Lines headed by an entry give the natural chain unless they say otherwise; changes in a name come on top.
UniProt A8BHA7: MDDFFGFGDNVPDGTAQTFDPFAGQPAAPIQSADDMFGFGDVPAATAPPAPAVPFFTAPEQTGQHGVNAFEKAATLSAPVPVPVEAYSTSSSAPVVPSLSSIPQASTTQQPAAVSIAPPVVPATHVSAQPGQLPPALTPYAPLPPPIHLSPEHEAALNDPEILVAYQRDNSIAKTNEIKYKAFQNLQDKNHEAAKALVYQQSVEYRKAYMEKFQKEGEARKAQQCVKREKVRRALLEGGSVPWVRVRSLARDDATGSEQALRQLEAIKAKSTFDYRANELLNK
UniProt A8BXV9: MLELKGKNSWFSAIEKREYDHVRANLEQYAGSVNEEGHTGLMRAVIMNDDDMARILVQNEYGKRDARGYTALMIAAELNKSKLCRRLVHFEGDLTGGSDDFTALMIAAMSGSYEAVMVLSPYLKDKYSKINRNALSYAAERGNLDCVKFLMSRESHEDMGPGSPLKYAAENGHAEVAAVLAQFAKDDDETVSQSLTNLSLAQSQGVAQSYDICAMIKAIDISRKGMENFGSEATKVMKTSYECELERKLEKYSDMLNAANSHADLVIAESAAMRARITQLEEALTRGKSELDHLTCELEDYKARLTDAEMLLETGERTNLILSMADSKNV
UniProt A8BL61: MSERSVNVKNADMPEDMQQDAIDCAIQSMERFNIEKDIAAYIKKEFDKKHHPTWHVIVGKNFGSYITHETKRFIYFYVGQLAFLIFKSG
UniProt A0A644F565: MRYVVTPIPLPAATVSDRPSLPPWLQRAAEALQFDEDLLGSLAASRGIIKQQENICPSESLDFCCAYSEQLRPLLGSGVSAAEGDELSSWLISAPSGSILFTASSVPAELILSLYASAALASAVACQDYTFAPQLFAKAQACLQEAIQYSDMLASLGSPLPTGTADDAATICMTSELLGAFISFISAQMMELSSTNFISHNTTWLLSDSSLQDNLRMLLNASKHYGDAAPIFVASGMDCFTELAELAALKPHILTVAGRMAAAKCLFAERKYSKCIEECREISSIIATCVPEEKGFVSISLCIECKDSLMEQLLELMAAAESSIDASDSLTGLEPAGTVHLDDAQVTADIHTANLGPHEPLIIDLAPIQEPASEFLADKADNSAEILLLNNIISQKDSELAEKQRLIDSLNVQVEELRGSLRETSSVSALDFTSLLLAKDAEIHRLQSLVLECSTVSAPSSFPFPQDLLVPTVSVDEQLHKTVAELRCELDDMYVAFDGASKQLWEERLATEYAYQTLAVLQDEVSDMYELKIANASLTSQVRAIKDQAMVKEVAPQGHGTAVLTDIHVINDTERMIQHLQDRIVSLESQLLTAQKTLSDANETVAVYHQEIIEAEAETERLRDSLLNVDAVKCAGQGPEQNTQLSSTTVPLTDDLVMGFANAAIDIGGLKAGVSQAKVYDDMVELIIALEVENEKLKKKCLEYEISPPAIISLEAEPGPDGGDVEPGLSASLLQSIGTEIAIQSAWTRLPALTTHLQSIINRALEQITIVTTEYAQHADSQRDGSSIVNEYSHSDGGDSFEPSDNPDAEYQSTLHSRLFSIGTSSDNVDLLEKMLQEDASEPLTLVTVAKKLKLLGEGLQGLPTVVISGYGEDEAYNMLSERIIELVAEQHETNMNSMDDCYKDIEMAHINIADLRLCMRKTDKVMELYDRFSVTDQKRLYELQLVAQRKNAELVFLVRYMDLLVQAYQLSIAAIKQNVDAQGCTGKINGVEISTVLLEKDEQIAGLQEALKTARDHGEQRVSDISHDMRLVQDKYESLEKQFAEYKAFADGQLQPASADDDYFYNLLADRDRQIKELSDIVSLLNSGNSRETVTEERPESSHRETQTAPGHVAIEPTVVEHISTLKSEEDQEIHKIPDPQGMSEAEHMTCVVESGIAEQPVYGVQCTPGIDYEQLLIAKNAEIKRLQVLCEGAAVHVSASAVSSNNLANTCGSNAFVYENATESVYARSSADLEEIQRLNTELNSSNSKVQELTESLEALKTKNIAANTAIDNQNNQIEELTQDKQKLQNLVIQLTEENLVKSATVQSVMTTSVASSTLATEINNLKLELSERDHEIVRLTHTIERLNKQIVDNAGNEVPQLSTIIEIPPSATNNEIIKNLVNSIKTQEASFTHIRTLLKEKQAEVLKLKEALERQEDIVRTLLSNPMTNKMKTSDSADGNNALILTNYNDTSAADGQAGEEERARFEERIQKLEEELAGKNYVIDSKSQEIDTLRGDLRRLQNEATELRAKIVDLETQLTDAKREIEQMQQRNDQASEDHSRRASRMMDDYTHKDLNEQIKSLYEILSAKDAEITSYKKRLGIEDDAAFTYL
UniProt A0A644F787: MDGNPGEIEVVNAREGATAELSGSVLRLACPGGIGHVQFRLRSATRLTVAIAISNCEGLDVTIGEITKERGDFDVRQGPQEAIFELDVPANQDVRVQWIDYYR
UniProt A8B9U8: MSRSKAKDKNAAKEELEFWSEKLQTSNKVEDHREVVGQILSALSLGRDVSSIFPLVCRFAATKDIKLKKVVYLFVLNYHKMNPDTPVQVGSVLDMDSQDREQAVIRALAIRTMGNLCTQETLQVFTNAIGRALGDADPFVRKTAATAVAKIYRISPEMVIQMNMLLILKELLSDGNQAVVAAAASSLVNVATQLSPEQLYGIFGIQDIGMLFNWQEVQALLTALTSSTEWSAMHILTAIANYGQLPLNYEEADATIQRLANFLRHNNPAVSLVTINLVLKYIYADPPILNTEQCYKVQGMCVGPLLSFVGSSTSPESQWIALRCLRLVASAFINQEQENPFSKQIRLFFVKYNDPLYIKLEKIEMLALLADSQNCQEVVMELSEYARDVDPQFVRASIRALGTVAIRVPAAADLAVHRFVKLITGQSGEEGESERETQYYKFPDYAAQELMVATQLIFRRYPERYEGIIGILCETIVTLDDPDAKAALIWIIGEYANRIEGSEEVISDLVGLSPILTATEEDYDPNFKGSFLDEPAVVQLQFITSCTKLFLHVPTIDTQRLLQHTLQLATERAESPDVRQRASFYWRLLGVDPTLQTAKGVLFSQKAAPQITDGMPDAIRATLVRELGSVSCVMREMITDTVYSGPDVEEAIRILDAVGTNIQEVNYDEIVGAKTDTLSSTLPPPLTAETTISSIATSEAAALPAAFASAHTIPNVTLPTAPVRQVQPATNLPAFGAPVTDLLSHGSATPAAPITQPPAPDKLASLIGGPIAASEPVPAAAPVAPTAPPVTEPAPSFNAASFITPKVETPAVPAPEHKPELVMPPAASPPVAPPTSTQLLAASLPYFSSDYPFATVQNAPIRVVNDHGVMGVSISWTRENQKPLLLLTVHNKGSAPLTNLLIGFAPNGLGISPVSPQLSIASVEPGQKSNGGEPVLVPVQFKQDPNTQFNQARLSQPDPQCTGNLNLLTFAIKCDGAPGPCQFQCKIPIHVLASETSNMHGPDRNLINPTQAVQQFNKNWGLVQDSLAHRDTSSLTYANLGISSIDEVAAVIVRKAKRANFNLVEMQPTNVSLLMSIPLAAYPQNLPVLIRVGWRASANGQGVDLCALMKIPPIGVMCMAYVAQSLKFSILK
UniProt A8BGY8: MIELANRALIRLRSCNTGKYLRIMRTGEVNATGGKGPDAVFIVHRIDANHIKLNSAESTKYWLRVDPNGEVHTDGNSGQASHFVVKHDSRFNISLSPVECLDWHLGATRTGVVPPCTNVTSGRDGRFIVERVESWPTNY
UniProt A8BAG8: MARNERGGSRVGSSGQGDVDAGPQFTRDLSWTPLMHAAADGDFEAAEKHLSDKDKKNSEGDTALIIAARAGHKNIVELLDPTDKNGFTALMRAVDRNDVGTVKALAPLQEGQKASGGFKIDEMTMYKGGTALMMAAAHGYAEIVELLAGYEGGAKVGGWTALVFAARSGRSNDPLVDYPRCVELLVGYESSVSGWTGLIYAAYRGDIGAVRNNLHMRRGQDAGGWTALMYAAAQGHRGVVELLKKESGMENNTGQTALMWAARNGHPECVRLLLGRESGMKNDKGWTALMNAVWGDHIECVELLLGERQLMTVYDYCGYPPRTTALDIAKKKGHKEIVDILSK
UniProt A0A644F1B7: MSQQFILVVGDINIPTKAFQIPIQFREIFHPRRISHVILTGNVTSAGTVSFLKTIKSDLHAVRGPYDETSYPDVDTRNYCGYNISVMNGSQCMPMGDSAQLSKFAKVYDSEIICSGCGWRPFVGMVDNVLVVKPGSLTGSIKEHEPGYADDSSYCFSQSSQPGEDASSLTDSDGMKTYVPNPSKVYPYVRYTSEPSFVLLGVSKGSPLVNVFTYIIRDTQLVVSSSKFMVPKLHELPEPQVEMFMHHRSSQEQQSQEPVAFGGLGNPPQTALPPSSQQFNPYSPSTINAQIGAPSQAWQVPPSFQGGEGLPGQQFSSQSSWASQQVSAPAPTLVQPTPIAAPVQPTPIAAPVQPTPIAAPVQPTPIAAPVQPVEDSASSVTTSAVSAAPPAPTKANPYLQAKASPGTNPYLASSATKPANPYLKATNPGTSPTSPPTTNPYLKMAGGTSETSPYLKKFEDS
UniProt A8BYC9: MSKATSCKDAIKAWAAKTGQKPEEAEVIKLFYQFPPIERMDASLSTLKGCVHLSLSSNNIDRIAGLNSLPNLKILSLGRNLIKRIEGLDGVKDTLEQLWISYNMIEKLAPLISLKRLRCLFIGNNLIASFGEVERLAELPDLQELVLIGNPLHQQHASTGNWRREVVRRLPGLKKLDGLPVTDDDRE
UniProt A8BZB0: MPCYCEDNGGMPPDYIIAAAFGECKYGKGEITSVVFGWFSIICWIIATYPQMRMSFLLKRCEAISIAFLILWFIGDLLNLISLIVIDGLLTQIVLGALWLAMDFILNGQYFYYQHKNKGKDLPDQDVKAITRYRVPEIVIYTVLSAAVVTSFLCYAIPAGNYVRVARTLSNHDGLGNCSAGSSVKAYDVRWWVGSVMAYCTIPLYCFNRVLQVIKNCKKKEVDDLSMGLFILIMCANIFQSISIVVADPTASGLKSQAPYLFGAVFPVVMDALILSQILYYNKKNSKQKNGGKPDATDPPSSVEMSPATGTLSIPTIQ
UniProt A8BUF3: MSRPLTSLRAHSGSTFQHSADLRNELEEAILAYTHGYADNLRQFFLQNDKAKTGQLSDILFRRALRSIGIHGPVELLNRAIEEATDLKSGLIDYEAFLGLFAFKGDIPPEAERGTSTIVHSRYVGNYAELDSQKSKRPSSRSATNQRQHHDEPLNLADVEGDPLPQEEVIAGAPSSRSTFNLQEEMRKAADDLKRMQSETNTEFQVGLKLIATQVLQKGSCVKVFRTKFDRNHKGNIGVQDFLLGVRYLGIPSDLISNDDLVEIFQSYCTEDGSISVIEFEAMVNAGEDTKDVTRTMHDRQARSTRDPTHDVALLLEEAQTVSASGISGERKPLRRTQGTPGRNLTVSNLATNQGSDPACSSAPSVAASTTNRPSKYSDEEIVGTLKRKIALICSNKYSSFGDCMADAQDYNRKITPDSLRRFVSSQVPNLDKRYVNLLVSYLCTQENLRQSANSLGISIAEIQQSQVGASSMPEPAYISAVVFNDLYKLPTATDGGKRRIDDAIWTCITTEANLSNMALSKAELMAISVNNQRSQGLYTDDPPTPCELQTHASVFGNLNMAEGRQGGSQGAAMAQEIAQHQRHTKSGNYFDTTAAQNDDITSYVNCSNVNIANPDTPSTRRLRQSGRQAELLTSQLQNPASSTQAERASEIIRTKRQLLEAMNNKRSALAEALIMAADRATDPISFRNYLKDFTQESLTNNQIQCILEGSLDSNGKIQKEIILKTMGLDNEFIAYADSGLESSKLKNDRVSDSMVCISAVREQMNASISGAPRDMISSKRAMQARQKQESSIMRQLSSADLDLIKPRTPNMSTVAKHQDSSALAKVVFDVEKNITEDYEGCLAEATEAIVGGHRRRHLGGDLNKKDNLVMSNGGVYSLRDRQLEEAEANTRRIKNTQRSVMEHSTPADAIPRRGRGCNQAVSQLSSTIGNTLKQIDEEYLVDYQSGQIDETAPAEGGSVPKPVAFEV
UniProt A8B470: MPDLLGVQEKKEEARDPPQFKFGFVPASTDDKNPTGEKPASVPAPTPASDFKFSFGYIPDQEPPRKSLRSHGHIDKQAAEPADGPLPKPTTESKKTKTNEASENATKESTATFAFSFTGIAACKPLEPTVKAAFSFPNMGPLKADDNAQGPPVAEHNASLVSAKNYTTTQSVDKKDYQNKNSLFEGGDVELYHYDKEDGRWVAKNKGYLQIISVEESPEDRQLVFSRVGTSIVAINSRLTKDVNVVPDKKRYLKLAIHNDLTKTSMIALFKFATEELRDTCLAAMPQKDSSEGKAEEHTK
UniProt E2RTN7: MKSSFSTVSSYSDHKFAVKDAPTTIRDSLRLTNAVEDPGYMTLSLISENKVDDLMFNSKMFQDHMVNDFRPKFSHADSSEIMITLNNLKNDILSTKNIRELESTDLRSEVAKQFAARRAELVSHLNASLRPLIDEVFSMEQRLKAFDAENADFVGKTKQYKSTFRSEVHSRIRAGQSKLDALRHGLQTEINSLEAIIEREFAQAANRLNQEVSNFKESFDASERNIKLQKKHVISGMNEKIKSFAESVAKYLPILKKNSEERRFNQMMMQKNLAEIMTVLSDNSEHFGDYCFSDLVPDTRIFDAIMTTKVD

T1: Giardia lamblia actin (GlActin) (Giardia lamblia (endogenous in strain WB clone 6)), P51775
T1 chain: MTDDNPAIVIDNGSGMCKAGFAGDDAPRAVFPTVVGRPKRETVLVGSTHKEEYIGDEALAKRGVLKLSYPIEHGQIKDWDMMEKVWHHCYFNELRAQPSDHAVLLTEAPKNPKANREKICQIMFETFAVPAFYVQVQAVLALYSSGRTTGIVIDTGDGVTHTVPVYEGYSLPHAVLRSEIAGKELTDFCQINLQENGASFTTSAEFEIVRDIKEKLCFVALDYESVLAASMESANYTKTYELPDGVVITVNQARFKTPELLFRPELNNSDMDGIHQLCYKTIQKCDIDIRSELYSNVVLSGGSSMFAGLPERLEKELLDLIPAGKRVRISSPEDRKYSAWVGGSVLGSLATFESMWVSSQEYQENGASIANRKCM


Key:
[1] = biological target: Giardia lamblia actin (GlActin) (Giardia lamblia (endogenous in strain WB clone 6)) (UniProt P51775); assay: affinity purification with mass spectrometry
[2] = biological target: T1, Giardia lamblia actin (GlActin) …; assay: affinity purification with mass spectrometry; conditions: remark: other sources report otherwise

| Molecule | binding [1] | binding [2] |
| --- | --- | --- |
| GL50803_4259 (clathrin light chain) (from UniProt A8BHA7) | binds | – |
| GL50803_4383 (ankyrin repeat protein) (from UniProt A8BPT7) | binds | – |
| GL50803_5810 (from UniProt A8BQ62) | binds | – |
| GL50803_9030 (ankyrin repeat) (from UniProt A8BXV9) | binds | – |
| GL50803_9848 (dynein light chain) (from UniProt A8BL61) | binds | – |
| GL50803_15124 (dynein light chain) (from UniProt A8BDA9) | binds | – |
| GL50803_15591 (coil coil protein) (from UniProt A0A644F565) | binds | – |
| GL50803_16522 (from UniProt A0A644F787) | binds | – |
| GL50803_21423 (beta adaptin) (from UniProt A8B9U8) | binds | – |
| GL50803_23833 (VPS35) (from UniProt E2RU45) | binds | – |
| GL50803_24451 (FGF domain) (from UniProt A8BGY8) | binds | – |
| GL50803_102813 (ankyrin repeat protein) (from UniProt A8BAG8) | binds | – |
| GL50803_103855 (VPS29) (from UniProt A0A644F1B7) | binds | – |
| GL50803_113622 (ankyrin-repeat domains) (from UniProt A8BKY7) | binds | – |

Results, then the molecule that gave them:

| binding [1] | binding [2] | Molecule |
| --- | --- | --- |
| binds | – | GL50803_4463 (dynein light chain) (from UniProt A8BYC9) |
| binds | – | GL50803_8044 (7 transmembrane domain) (from UniProt A8BZB0) |
| binds | – | GL50803_8726 (from UniProt A8BUF3) |
| binds | – | GL50803_13930 (Arf3) (from UniProt A8BCC2) |
| binds | – | GL50803_14213 (coiled coil domain) (from UniProt A8B470) |
| binds | – | GL50803_17153 (alpha-11 giardin) (from UniProt Q4VPP2) |
| binds | – | GL50803_17230 (gamma-giardin) (from UniProt E2RTN7) |
| binds | – | GL50803_27925 (ankyrin-repeat domains) (from UniProt A8B440) |
| binds | – | GL50803_33685 (armadillo repeat) (from UniProt A8BMP5) |
| binds | – | GL50803_115478 (ankyrin repeat) (from UniProt A8BR64) |
| – | binds | 14-3-3, E2RU97 1-248 (protein) MAEAFTREDYVFMAQLNENAERYDEMVETMRKISGMEGELSDKERNLLSVAYKNVIGPRRAAWRIVSSIEAKEKGRQKPNAKRIEQIRVYRQKIEKELSDICNDILKLLQEQFVPRSTNADAKVFYYKMQGDYYRYLAEYSSGEDKEKIAGSALNAYNSAFEISQQLPPTHPIRLGLALNFSVFYYEILASPDRACELARKAFDAAITDLDKLTEESYKDSTLIMQLLRDNLNLWVTDSAGDDNAEEK |
